Experimental findings from paper doi:10.1101/2023.02.03.526835 (bioRxiv, 2023) are described below.

Amino acid sequences for entries named in this document (tags omitted).
UniProt P53224: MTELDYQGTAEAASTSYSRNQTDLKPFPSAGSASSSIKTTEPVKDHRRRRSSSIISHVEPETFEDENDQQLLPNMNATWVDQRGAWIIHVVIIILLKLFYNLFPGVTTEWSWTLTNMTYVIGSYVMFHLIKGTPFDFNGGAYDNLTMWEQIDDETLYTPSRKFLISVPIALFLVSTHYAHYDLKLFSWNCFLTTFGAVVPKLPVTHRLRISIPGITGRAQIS

These are yes or no findings as the source states them, for the method shown. Binding seen in cells or lysates may run through a third protein. Here binding means that the protein was enriched with, or labelled near, the bait; the list need not be complete. For some assays here: Sequences can lack the tags named with a protein.

Experiment [1] concerns the target T1, ALFA-Sac1 (S. cerevisiae) (S. cerevisiae) (UniProt P32368).
T1 sequence: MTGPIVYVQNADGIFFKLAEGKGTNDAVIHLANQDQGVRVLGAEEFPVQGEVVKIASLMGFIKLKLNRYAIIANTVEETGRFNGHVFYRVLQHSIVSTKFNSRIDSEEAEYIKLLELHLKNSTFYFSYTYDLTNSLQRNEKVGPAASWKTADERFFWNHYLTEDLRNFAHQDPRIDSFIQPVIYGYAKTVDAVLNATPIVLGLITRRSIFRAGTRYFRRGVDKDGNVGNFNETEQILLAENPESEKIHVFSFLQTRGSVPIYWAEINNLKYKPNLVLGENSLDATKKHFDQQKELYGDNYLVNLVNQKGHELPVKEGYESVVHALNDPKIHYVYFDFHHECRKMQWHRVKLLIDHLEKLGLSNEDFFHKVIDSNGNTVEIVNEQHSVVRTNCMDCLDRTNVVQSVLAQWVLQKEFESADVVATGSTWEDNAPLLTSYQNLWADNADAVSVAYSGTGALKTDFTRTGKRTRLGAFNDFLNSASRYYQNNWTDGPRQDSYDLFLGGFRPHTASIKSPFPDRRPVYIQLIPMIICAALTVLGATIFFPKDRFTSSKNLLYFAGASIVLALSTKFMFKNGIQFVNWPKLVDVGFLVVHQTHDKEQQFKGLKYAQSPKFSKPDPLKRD
Briefly: affinity purification with mass spectrometry.

The target of experiment [2] is T2, GFP-Sac1 (D. discoideum) (D. discoideum) (UniProt Q55AW9).
T2 sequence: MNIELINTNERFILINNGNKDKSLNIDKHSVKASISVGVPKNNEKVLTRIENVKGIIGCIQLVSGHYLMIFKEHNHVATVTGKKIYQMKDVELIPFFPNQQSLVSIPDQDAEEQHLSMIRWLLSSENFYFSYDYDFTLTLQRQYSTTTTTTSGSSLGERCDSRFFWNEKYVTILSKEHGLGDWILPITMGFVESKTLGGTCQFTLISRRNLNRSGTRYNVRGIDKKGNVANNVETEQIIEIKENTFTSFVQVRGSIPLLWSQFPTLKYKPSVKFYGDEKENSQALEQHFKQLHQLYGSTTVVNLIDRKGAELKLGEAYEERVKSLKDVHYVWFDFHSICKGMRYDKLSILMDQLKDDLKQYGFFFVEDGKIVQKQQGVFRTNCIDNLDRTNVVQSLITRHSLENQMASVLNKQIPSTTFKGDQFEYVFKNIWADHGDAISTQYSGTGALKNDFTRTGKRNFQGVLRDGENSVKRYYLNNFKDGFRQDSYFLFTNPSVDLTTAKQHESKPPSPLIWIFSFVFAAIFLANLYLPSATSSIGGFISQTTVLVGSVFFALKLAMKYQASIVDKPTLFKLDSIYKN
Briefly: affinity purification with mass spectrometry.

“Orm1 protein (in yeast lysate) (from UniProt P53224 1-222)”: the binding entry in experiment [1] was “binds”.

Orm1-like protein 2 (D. discoideum): the binding entry in experiment [2] is given as “binds”.

B1: sptB (D. discoideum SPT subunit) (enzyme, UniProt Q54EX5 1-490)
chain: MEDKEDVENVDDVGYLPILFLYIAYAFIIFNGKLAEFIGKLKGERYLHTPEGYAPLFVEFEYFYQRRMYGRIKDAWDRPINSIAGAWIDVMPRASKHYSQRLELTGGKTIKCLNLGSYNYLGFAQNEGPVADKVIDSIYKYGVYTGSTSAEVGLSEPQRDLENLTARFVGKEDAIVFEMGFATNSGTLPALIGKGGLIISDSLNHASLATGCKNTGCKVKVFRHNDSKHLEEVIRESIIQGQPRTHRPWTMILIIIEGIYSMEGEVANLPEILAIKKKYKCYLYIDEAHSIGALGKTGRGIVDYYGIDPKEIDILMGTYTKSFGAIGGYVASDKSLIDHLRQSSFSQVYANSMSPVCAVQALEALRVIMGEDGTDTGAKKLKQLHDNSNYFREKIREMGFVILGNKDSPVIPLMLFNPAKLSAFSRLCLEKHIAVVVVGYPATPLTEPRTRFCISASHTIEDLDWALRQIDEIGDLITLKFHKGKYLKSK
With B1, the binding entry in experiment [2] was “binds”.

B2: sptA (D. discoideum SPT subunit) (enzyme, UniProt Q55FL5 1-479)
chain: MFLFDIYNNILYYTKEFIVTSTSPNLFIHGLMAVFIIYLLTKRPFKPRQNDTLTKAEEDELIREWSPIPLTPKSNPLEVLNQTELIIQESEGTHVTINNKKYLNLARSNYLGLINNPEINKISENAIRKYGVGSCGPRGFYGTIDVHLDLEKKTASFMKTPEAVLYSSAYATISSAIPSFSKIGDIIIVDRGVSQPVQVGVSLSRSRIYYFNHNDMDDLQRVLEQTQFKGSKAKIVRKFVVIEGLYYNSGTIAPLPQILKFKEQYKFRLIMDESHSVGVLGSTGRGLTEHYNIDTNLVDILTGSYGNSFSSGGGFCCGSPEVVYHQRLNGVGYVFSASLPPFLACSSTKAIEMLEENPKMLEMLHSNIGELYQGLNKSGALNGLLEITSLPISPVIHLSLLDSKSNKSNRINDELLLQKIVDKAMDYGLLLTRAKYVSAEKFIPKPSIRISVSSNLSSDQIKQSIEIIKKCTSFVLESN
Consider B2, for which the binding entry in experiment [2] is “binds”.

B3: Lcb2 (in yeast lysate) (enzyme, UniProt P40970 1-561)
chain: MSTPANYTRVPLCEPEELPDDIQKENEYGTLDSPGHLYQVKSRHGKPLPEPVVDTPPYYISLLTYLNYLILIILGHVHDFLGMTFQKNKHLDLLEHDGLAPWFSNFESFYVRRIKMRIDDCFSRPTTGVPGRFIRCIDRISHNINEYFTYSGAVYPCMNLSSYNYLGFAQSKGQCTDAALESVDKYSIQSGGPRAQIGTTDLHIKAEKLVARFIGKEDALVFSMGYGTNANLFNAFLDKKCLVISDELNHTSIRTGVRLSGAAVRTFKHGDMVGLEKLIREQIVLGQPKTNRPWKKILICAEGLFSMEGTLCNLPKLVELKKKYKCYLFIDEAHSIGAMGPTGRGVCEIFGVDPKDVDILMGTFTKSFGAAGGYIAADQWIIDRLRLDLTTVSYSESMPAPVLAQTISSLQTISGEICPGQGTERLQRIAFNSRYLRLALQRLGFIVYGVADSPVIPLLLYCPSKMPAFSRMMLQRRIAVVVVAYPATPLIESRVRFCMSASLTKEDIDYLLRHVSEVGDKLNLKSNSGKSSYDGKRQRWDIEEVIRRTPEDCKDDKYFVN
In the case of B3, in experiment [1], the binding entry is reported as “binds”.
